This is one part of the list. The main result of the screen is listed elsewhere. These columns were measured beside it and carry no call. The list favours compounds with an active or inconclusive main result. Potencies come from curve fits of mixed quality, noted in brackets.
Assay: qHTS Assay to Find Inhibitors of Chronic Active B-Cell Receptor Signaling
Conditions: ABC-DLBCL IkBa-CBG/CBR reporter, luminescence ratio (green luciferase fused to IkBa over red control in TMD8 lymphoma cells), 4 h
Method in brief: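 Concentration-response series (up to 46 uM) were applied to TMD8 dual-reporter cells for 4 h at 37C with doxycycline. Green/red ratio, after filter-overlap correction, defined %Activity; red signal alone was normalised to basal cells and zero luminescence.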

[1] = measured here: CBR red luminescence, cell number
[2] = measured here: IkBa-CBG green luminescence

Row | Structure (SMILES) | AC50 [1] | AC50 [2]
1 | O=C(CSc1ncn[nH]1)N/N=C/c1ccc(Br)cc1 | 14.1 µM [falling, partial curve] | 
2 | CC(C)c1ccc(NC(=S)NC2CC3C=CC2C3)cc1 (stereo not given) | 0.794 µM [rising, full curve, poor fit] | 
3 | CCOC(=O)N1CCN(Cc2nc(Cc3cccc(C(F)(F)F)c3)no2)CC1 | 35.5 µM [rising, partial curve, poor fit] | 
4 | Cc1cc(C)n2c(C)nnc2c1 | 12.6 µM [falling, partial curve, poor fit] | 
5 | N/C(=N\OC(=O)COc1ccc2ccccc2c1)c1ccncc1 | 0.562 µM [rising, full curve, poor fit] | 
6 | Cc1nnsc1C(=O)NNC(=O)c1ccc(C(F)(F)F)cc1 | 35.5 µM [falling, single point] | 
7 | CS(=O)(=O)C1=C(O)C(=O)N(c2ccccc2)C1c1ccccc1 (stereo not given) | 1.16 µM [rising, full curve, poor fit] | 5.8 µM [falling, partial curve, poor fit]
8 | Nc1nc(SCc2ccccc2)c2[nH]cnc2n1 |  | 14.1 µM [falling, partial curve, poor fit]
9 | COc1ccc(C(=O)NCCn2cc(SCC(=O)Nc3ccc(C)cc3)c3ccccc32)cc1 | 20 µM [falling, single point] | 12.6 µM [rising, partial curve, poor fit]
10 | O=C(Nc1nnc(C2CCCO2)s1)c1cccs1 (stereo not given) | 29.1 µM [falling, single point] | 
11 | CC1CCC(NC(=O)CCS(=O)(=O)c2ccc3c(c2)CC(C)N3C(=O)C2CC2)CC1 (stereo not given) | 2.82 µM [falling, single point] | 
12 | CN(C(=O)Nc1cnccc1C(F)(F)F)C1CCCCC1 | 20 µM [falling, partial curve, poor fit] | 
13 | CCOC(=O)CN(C(=O)CNC(=O)c1cccs1)C(C(=O)NC1CCCC1)c1ccncc1 (stereo not given) | 12.6 µM [rising, single point] | 
14 | O=C(O)c1cccnc1SCCc1ccccc1 | 3.66 µM [rising, partial curve, poor fit] | 
15 | COc1ccc(-c2nnc(SCC(=O)Nc3ccccc3OC)o2)cc1 | 8.2 µM [falling, partial curve] | 
16 | c1ccc(-c2cn3c(n2)-c2ccccc2C3)cc1 | 29.1 µM [falling, single point] | 
17 | COCCOC(=O)c1c(NC(=O)CSc2cccc[n+]2[O-])sc(C(N)=O)c1C |  | 35.5 µM [falling, single point]
18 | CC(C)(Oc1ccc(CCNC(=O)c2ccc(Cl)cc2)cc1)C(=O)O | 20.6 µM [rising, single point] | 

Entries of single compounds as entered above:
N/C(=N\OC(=O)COc1ccc2ccccc2c1)c1ccncc1 is listed with AC50 [1]: 0.562 µM [rising, full curve, poor fit]
CC(C)(Oc1ccc(CCNC(=O)c2ccc(Cl)cc2)cc1)C(=O)O is listed with AC50 [1]: 20.6 µM [rising, single point]

Reference: PubChem BioAssay AID493014 (National Center for Advancing Translational Sciences (NCATS), 2011)
